Source: US20220259296A1
No constants are given. Whether binding was seen depends on the method and setting. Some results given as binding are weak or reduced against the parent protein; the word gives no strength.

Sequences of proteins named here, by UniProt entry; tags and fusion partners are left off. Residues count along the entry.
UniProt P01024, residues 23-1663: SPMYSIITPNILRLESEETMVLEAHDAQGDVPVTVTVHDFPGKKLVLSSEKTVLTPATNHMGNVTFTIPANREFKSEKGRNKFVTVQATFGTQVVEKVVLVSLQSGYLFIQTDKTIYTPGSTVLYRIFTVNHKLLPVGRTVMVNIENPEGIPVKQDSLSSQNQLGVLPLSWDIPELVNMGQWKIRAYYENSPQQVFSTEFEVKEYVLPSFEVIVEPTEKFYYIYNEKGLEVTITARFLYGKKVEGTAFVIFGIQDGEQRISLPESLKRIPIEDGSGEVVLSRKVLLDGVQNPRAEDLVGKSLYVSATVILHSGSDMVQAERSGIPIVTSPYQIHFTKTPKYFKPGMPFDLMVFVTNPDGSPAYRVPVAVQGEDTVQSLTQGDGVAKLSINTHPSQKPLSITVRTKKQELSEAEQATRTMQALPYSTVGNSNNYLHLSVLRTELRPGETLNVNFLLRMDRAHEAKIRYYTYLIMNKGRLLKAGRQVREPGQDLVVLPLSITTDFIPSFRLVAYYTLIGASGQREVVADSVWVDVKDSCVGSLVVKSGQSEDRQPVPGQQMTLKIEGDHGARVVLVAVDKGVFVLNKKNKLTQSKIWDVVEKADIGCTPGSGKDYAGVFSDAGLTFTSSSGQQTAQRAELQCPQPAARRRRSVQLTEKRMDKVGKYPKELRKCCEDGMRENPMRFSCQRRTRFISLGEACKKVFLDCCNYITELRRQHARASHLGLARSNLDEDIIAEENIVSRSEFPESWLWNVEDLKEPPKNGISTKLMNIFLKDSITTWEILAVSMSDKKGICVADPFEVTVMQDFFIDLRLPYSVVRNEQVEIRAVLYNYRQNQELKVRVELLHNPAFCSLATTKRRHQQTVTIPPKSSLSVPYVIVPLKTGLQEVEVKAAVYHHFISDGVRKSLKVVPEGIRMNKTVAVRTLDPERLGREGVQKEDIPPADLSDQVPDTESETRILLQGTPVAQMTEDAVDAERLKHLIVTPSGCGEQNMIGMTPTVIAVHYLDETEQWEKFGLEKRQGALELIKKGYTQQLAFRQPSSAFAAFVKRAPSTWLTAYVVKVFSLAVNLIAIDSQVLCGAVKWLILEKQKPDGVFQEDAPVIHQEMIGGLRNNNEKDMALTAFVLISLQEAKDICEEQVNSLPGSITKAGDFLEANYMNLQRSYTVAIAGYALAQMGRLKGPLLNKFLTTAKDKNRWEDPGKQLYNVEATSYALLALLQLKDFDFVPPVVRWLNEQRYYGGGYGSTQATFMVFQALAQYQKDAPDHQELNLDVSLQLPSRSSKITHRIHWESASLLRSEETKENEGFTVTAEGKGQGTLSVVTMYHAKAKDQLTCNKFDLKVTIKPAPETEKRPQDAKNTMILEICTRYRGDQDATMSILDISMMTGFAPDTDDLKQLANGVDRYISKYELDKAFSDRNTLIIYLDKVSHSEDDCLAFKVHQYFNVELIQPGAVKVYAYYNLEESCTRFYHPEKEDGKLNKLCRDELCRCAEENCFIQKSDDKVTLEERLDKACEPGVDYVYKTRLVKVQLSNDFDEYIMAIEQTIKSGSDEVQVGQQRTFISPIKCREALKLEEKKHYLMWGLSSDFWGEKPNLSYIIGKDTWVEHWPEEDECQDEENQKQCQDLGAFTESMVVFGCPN

Legend:
[1] = target: human complement C3 (human) (UniProt P01024); test: competition ELISA on human C3; competitor: biotinylated M0122 (panel title 'Competition with M0122')
[2] = target: human complement C3 (human) (UniProt P01024); test: direct binding ELISA, C3 coated
[3] = target: human complement C3 (human) (UniProt P01024); test: biolayer interferometry
[4] = target: human complement C3 (human) (UniProt P01024); test: direct binding ELISA, purified native human C3 coated
[5] = target: human complement C3 (human) (UniProt P01024); test: direct ELISA, plate coated with purified native human C3
[6] = target: human complement C3 (human) (UniProt P01024); test: competition ELISA on human C3; competitor: biotinylated M0124 (panel title 'Competition with M0124')
[7] = target: human complement C3 (human) (UniProt P01024); test: competition ELISA on human C3; competitor: biotinylated M0251 (panel title 'Competition with M0251')
[8] = target: human complement C3 (human) (UniProt P01024); test: C3 binding ELISA with biotinylated antibody and competitor antibodies
[9] = target: human complement C3 (human) (UniProt P01024); test: competition ELISA on human C3; competitor: biotinylated M0123 (panel title 'Competition with M0123')

Measured: binding

B1: M0122 (antibody, V domains shown)
VH: QSVKESGGRLVTPGTPLTLTCTVSGFSLYNYAMNWVRQAPGKGLEWIGIINTDGNTNYASWAKGRFTISTTSSTTVDLKITSPTTEDTATYFCPRAVGYHHHALDPWGPGTLVTVSS
VL: ELVLTQSPSVSAALGASAKLTCTLSSAHKTYTIDWYQQQQGEAPRYLMQLKSDGSYTKGTGVPDRFSGSSSGADRYLIIPSVQADDEADYYCGTDYGGGYVFGGGTQLTVTG
binds: [1] | [2] | [3] | [4] | [5]

B2: M0124 (antibody, V domains shown)
VH: QSVKESGGRLVTPGTPLTLTCTVSGIDLSRYWMNWVRQAPGKGLEWIGYITTNDKTYYANWAKGRYTISKTSSTTVDLKMTSLTTEDTATYFCARRSSGAYDIWGPGTLVTISS
VL: QPVLTQSPSASATLGASAKLTCTLSSAHKTYYIEWYQQQQGEAPRYLMQLKSDGTYTKGTGVPDRFSGSSSGADRYLIISSVQAEDEADYICGVTGGNVYVFGGGTQLTVTG
binds: [2] | [6] | [3] | [4] | [5]

B3: M0228 (VHH)
VHH: EVQLVESGGGLVQAGGSLRLSCAASGRTINDYTMGWFRQAPGKDREFVSAINWRGSSTYYADSVKGRFTISRDNAKKTIYLQMNLLKPEDTAVYYCARQVSPYVELTATAAYWGQGTQVTVSS
not listed: [1] | [6]
binds: all other assays above

B4: M0251 (VHH)
VHH: EVQLVESGGGLVQAGGSLRLSCVASGHTFGNWAMGWFRQAPGKEREFVGAIRWSVGTTNYRDSVKGRFAISRDNARNTVYLQMNRLKPEDTAVYYCAAGTPFVLARINGYDYWGQGTQVTVSS
binds: [7] | [8] | [9]

B5: M0123 (antibody, V domains shown)
VH: QSVKESEGRLVTPGTPLTLTCTASGFTIGSYHMSWVRQAPGKGLEWIGIIYTDGNTDYANWAKGRFTISKTSTTMDLKMTSLTAADTATYFCARRGYADYGYTFNLWGQGTLVTISS
VL: ELVLTQPASVQVNLGQTVSLTCTADTLSRNYASWYQQKPGQAPVLLIYRDTSRPSGVPDRFSGSSSGNTATLTISGAQAGDEADYYCATGDGSGSSYQFVFGGGTQLTVTG
binds: [8] | [9]
